Data source: PubChem BioAssay AID1259425 (University of Nebraska Medical Center, 2018)
This is an unselected part of about 14,000 reagents tested. Reagents against one gene are numbered here. Not all columns of the deposit are shown. The record does not give: the time to read-out.

Purpose: 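Compare each knockdown with KSR1 silencing using changes in marker transcripts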 (primary screen)
Cells: HCT116 human colon cancer cells
Reagent: siRNA pool against human genes, 50 nM siRNA
Read-out: 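After 50 nM siRNA pool, branched-DNA assay measures six marker transcripts per well, minus blank, normalised to the geometric mean of two housekeeping transcripts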
Reading the numbers: BNIP3L mRNA: higher = more BNIP3L transcript after knockdown; NDRG1 mRNA: higher = more NDRG1 transcript after knockdown

What is on record for PCGF5 (polycomb group ring finger 5)?
BNIP3L mRNA, set 1: 0.0562; NDRG1 mRNA, set 1: 0.13

What is on record for ZFHX2 (zinc finger homeobox 2) #1?
BNIP3L mRNA, set 1: 0.206; NDRG1 mRNA, set 1: 0.711

Which result is listed for ZFHX2 (zinc finger homeobox 2) #2?
BNIP3L mRNA, set 1: 0.117; NDRG1 mRNA, set 1: 0.447

For FCRL3 (Fc receptor like 3), how do the results read?
BNIP3L mRNA, set 1: 0.0679; NDRG1 mRNA, set 1: 0.104

What is on record for TPST2 (tyrosylprotein sulfotransferase 2)?
BNIP3L mRNA, set 1: 0.0707; NDRG1 mRNA, set 1: 0.364

With TAF11 (TATA-box binding protein associated factor 11), what was measured?
BNIP3L mRNA, set 1: 0.105; NDRG1 mRNA, set 1: 0.364

Records listed so far whose target name starts with T or t:
TPST2 (tyrosylprotein sulfotransferase 2) | BNIP3L mRNA, set 1 = 0.0707; NDRG1 mRNA, set 1 = 0.364
TAF11 (TATA-box binding protein associated factor 11) | BNIP3L mRNA, set 1 = 0.105; NDRG1 mRNA, set 1 = 0.364

The results go on:
How did the screen score NRG3 (neuregulin 3)?
BNIP3L mRNA, set 1: 0.0665; NDRG1 mRNA, set 1: 0.0253

What did the screen give for WNT9A (Wnt family member 9A)?
BNIP3L mRNA, set 1: 0.0621; NDRG1 mRNA, set 1: 0.203

What did the screen give for DRICH1 (aspartate rich 1)?
BNIP3L mRNA, set 1: 0.147; NDRG1 mRNA, set 1: 0.123

For ASTN1 (astrotactin 1), how do the results read?
BNIP3L mRNA, set 1: 0.123; NDRG1 mRNA, set 1: 0.169

How did the screen score CLEC1B (C-type lectin domain family 1 member B)?
BNIP3L mRNA, set 1: 0.053; NDRG1 mRNA, set 1: 0.143

For GHRL (ghrelin and obestatin prepropeptide), what does the deposit list?
BNIP3L mRNA, set 1: 0.261; NDRG1 mRNA, set 1: 0.621

How did the screen score BACE1 (beta-secretase 1)?
BNIP3L mRNA, set 1: 0.0363; NDRG1 mRNA, set 1: 0.393

Which result is listed for MYOD1 (myogenic differentiation 1)?
BNIP3L mRNA, set 1: 0.114; NDRG1 mRNA, set 1: 0.376

For RALGPS2 (Ral GEF with PH domain and SH3 binding motif 2), how do the results read?
BNIP3L mRNA, set 1: 0.0793; NDRG1 mRNA, set 1: 0.0629

What is on record for P3H1 (prolyl 3-hydroxylase 1)?
BNIP3L mRNA, set 1: 0.198; NDRG1 mRNA, set 1: 0.538

How did the screen score MYO1D (myosin ID)?
BNIP3L mRNA, set 1: 0.17; NDRG1 mRNA, set 1: 0.209

Which result is listed for SLC2A8?
BNIP3L mRNA, set 1: 0.122; NDRG1 mRNA, set 1: 0.149

How did the screen score POLR2G (RNA polymerase II subunit G)?
BNIP3L mRNA, set 1: 0.129; NDRG1 mRNA, set 1: 0.8
